One test deals with T1, CDPK4-2xmyc (P. berghei) (UniProt P62345).
T1 sequence (chain, myristoylated glycine 2 (large 63 kDa isoform)): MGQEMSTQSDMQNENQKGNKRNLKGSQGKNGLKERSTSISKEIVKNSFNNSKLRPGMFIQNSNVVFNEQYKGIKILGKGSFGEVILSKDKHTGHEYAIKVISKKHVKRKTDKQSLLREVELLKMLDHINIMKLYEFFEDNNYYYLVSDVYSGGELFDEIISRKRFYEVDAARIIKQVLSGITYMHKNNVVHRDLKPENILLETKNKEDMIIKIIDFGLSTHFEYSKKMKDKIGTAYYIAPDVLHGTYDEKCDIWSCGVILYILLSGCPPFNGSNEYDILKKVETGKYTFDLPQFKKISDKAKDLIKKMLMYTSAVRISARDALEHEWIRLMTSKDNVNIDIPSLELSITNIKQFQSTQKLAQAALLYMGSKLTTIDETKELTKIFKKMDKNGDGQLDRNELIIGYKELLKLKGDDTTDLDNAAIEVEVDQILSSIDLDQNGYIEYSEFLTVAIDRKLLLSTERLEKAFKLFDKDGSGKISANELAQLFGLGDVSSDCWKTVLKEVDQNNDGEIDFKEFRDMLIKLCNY
The test can be described thus: affinity purification with mass spectrometry; gametocytes of the CDPK4-2xmyc, CDPK4^G2A-2xmyc, MCM5-3xHA and SOC1-3xHA lines (non-activated; CDPK4-2xmyc also 15 s after activation with or without 1 µM 1294) and of CDPK4-3xHA and CDPK4-2xmyc 10 min after activation; fixed 10 min with 1% formaldehyde, lysed in RIPA buffer, anti-HA or anti-c-myc magnetic beads, digestion on the beads, LC-ESI-MS/MS; proteins found in the WT control left out.

Another test deals with T2, CDPK4-3xHA (P. berghei) (UniProt P62345).
T2 sequence (chain, myristoylated glycine 2 (large 63 kDa isoform)): T1 sequence (chain, myristoylated glycine 2 (large 63 kDa isoform))
Briefly: affinity purification with mass spectrometry; CDPK4-3xHA gametocytes, non-activated (0 s) and 15 s after XA activation with or without 1 µM 1294; fixed 10 min with 1% formaldehyde, lysed in RIPA buffer, benzonase nuclease added, anti-HA magnetic beads; eluate separated by gel, eight slices …; proteins found in the WT control left out.

A further test has as its target SOC1-3xHA (P. berghei). The test can be described thus: affinity purification with mass spectrometry; gametocytes of the CDPK4-2xmyc, CDPK4^G2A-2xmyc, MCM5-3xHA and SOC1-3xHA lines (non-activated; CDPK4-2xmyc also 15 s after activation with or without 1 µM 1294) and of CDPK4-3xHA and CDPK4-2xmyc 10 min after activation; fixed 10 min with 1% formaldehyde, lysed in RIPA buffer, anti-HA or anti-c-myc magnetic beads, digestion on the beads, LC-ESI-MS/MS; proteins found in the WT control left out.

In the next test the target is MCM5-3xHA (P. berghei). The description is as above.

Results are given in words; binding and its absence hold for the method and conditions named. In cells and extracts the contact can be indirect. These calls come from enrichment with a bait or labelling near it, and not all partners need be listed. For some of these results: Where a sequence is shown, tags or fusion partners need not be part of it.

From paper PMC5457135 come the findings set out here.

As to “PBANKA_051390 (P. berghei (endogenous in gametocytes))”, the binding result in the test with CDPK4-2xmyc (P. berghei) and with CDPK4-3xHA (P. berghei) was “binds” in each case.

For “ORC2 (P. berghei (endogenous in gametocytes))”, the binding result in the test with CDPK4-2xmyc (P. berghei) and in the test with CDPK4-3xHA (P. berghei) was “binds” throughout.

“ORC1 (P. berghei (endogenous in gametocytes))”: the binding result with CDPK4-2xmyc (P. berghei) and in the test with CDPK4-3xHA (P. berghei) was “binds” each time.

For the molecule “MCM7 (P. berghei (endogenous in gametocytes))”, the binding result with CDPK4-2xmyc (P. berghei) and with CDPK4-3xHA (P. berghei) was “binds” in each case.

As to “MCM6 (P. berghei (endogenous in gametocytes))”, the binding result in the test with CDPK4-2xmyc (P. berghei) and with CDPK4-3xHA (P. berghei) was “binds” each time.

As for “ORC5 (P. berghei (endogenous in gametocytes))”, the binding result with CDPK4-2xmyc (P. berghei) and in the test with CDPK4-3xHA (P. berghei) was “binds” throughout.

On to “PBANKA_110290 (P. berghei (endogenous in gametocytes))”, for which the binding entry with CDPK4-2xmyc (P. berghei) and with CDPK4-3xHA (P. berghei) was “binds” in each case.

Regarding “MCM3 (P. berghei (endogenous in gametocytes))”, the binding result in the test with CDPK4-2xmyc (P. berghei) and with CDPK4-3xHA (P. berghei) was “binds” in each case.

As to “PBANKA_134880 (P. berghei (endogenous in gametocytes))”, the binding result with CDPK4-2xmyc (P. berghei) and in the test with CDPK4-3xHA (P. berghei) was “binds” each time.

With “Cdt1 (P. berghei (endogenous in gametocytes))”, the binding result in the test with CDPK4-2xmyc (P. berghei) and in the test with CDPK4-3xHA (P. berghei) was “binds” in each case.

As for “MCM2 (P. berghei (endogenous in gametocytes))”, the binding entry in the test with CDPK4-2xmyc (P. berghei) and with CDPK4-3xHA (P. berghei) was “binds” throughout.

For the molecule “MCM4 (P. berghei (endogenous in gametocytes))”, the binding result in the test with CDPK4-2xmyc (P. berghei) and in the test with CDPK4-3xHA (P. berghei) was “binds” each time.

On to “MCM5 (P. berghei (endogenous in gametocytes))”, for which the binding entry in the test with CDPK4-2xmyc (P. berghei) and in the test with CDPK4-3xHA (P. berghei) was “binds” each time.

B1: CDPK4 (enzyme, UniProt P62345 1-528)
chain: T1 sequence (chain, myristoylated glycine 2 (large 63 kDa isoform))
Regarding B1, the binding result with SOC1-3xHA (P. berghei) and with MCM5-3xHA (P. berghei) was “binds” throughout.
